# PubChem BioAssay AID1259405 | NCATS, 2018
# Aim: 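Knock-downs that lift recombinant protein yield in hamster ovary cells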 (primary screen)
# Cell system: Chinese hamster CHO-K1 ovary cells with stable secreted eGFP expression
# Reagent: single siRNA against mouse genes, 0.8 pmol siRNA per well (2 µl of 400 nM stock)
# Timing: 3 days
# Detection: 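Per-well intracellular GFP measured by laser scanning cytometry, plus viability from ATP luminescence, each relative to plate median of non-targeting control wells, in %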
# Scale: GFP, % of control: higher = more GFP per well, higher productivity; viability (ATP), % of control: higher = more viable cells (more ATP)
# Active means: 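a knock-down is called active if GFP reaches 120% or more of non-targeting control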
# The deposit covers about 50,000 reagents; below is an unselected part. About 4,000 of them (8%) were called active. 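Mouse siRNA library applied to hamster cells; one well for each siRNA.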 Reagents against one gene are numbered here. No sequences are given here.
target,siRNA no.,"GFP, % of control","viability (ATP), % of control",Call
Clptm1 (cleft lip and palate associated transmembrane protein 1),1,65.6,87,inactive
Clptm1 (cleft lip and palate associated transmembrane protein 1),2,63.3,66,inactive
Clptm1 (cleft lip and palate associated transmembrane protein 1),3,100,128,inactive
Fahd1 (fumarylacetoacetate hydrolase domain containing 1),1,45.7,27.3,inactive
Fahd1 (fumarylacetoacetate hydrolase domain containing 1),2,88.5,98.9,inactive
Fahd1 (fumarylacetoacetate hydrolase domain containing 1),3,53.8,66.4,inactive
Dnajc28 (DnaJ heat shock protein family (Hsp40) member C28),1,161,61.6,active
Dnajc28 (DnaJ heat shock protein family (Hsp40) member C28),2,61.1,36.7,inactive
Dnajc28 (DnaJ heat shock protein family (Hsp40) member C28),3,72.2,80,inactive
Ninj1 (ninjurin 1),1,68.7,72.7,inactive
Ninj1 (ninjurin 1),2,85.3,47.5,inactive
Nfkbid,1,78.6,91.2,inactive
Nfkbid,2,103,77.5,inactive
Nfkbid,3,83.1,93,inactive
Hdac5 (histone deacetylase 5),1,37.2,53.6,inactive
Hdac5 (histone deacetylase 5),2,102,76.5,inactive
Hdac5 (histone deacetylase 5),3,84.6,78.9,inactive
Tmem218 (transmembrane protein 218),1,81.6,73.2,inactive
Tmem218 (transmembrane protein 218),2,67.6,64.1,inactive
Tmem218 (transmembrane protein 218),3,51.8,78.5,inactive
Senp6 (SUMO/sentrin specific peptidase 6),1,62.1,50.9,inactive
Senp6 (SUMO/sentrin specific peptidase 6),2,122,79.5,active
Senp6 (SUMO/sentrin specific peptidase 6),3,57.4,52.4,inactive
Morc4 (microrchidia 4),1,95.4,101,inactive
Morc4 (microrchidia 4),2,91,82.9,inactive
Morc4 (microrchidia 4),3,59.9,67.2,inactive
Myo3b (myosin IIIB),1,45.5,54.4,inactive
Myo3b (myosin IIIB),2,67.7,74,inactive
Myo3b (myosin IIIB),3,77.4,79.3,inactive
"Rbfox1 (RNA binding protein, fox-1 homolog (C. elegans) 1)",1,77.7,94.5,inactive
"Rbfox1 (RNA binding protein, fox-1 homolog (C. elegans) 1)",2,118,109,inactive
"Rbfox1 (RNA binding protein, fox-1 homolog (C. elegans) 1)",3,99.7,63,inactive
Sytl2 (synaptotagmin-like 2),1,61.7,67.2,inactive
Sytl2 (synaptotagmin-like 2),2,71.8,65.6,inactive
Sytl2 (synaptotagmin-like 2),3,67.7,67.2,inactive
Or4x11 (olfactory receptor family 4 subfamily X member 11),1,131,45.9,active
Or4x11 (olfactory receptor family 4 subfamily X member 11),2,49.9,70.5,inactive
Or4x11 (olfactory receptor family 4 subfamily X member 11),3,53.2,102,inactive
Zfp335 (zinc finger protein 335),1,103,72.9,inactive
Zfp335 (zinc finger protein 335),2,63.1,59.1,inactive
Traf2 (TNF receptor-associated factor 2),1,57.2,54.2,inactive
Traf2 (TNF receptor-associated factor 2),2,55.5,71.9,inactive
Traf2 (TNF receptor-associated factor 2),3,67.9,69.6,inactive
Vmn1r193 (vomeronasal 1 receptor 193),1,33.4,50.7,inactive
Vmn1r193 (vomeronasal 1 receptor 193),2,89.3,63.6,inactive
Vmn1r193 (vomeronasal 1 receptor 193),3,85.4,88.4,inactive
Gk2 (glycerol kinase 2),1,72.9,47.6,inactive
Ush1c (USH1 protein network component harmonin),1,55,65.4,inactive
Ush1c (USH1 protein network component harmonin),2,81.2,87.3,inactive
Ush1c (USH1 protein network component harmonin),3,76.1,84.1,inactive

Next part (4 carried over from the part before).
target,siRNA no.,"GFP, % of control","viability (ATP), % of control",Call
Gk2 (glycerol kinase 2),1,72.9,47.6,inactive
Ush1c (USH1 protein network component harmonin),1,55,65.4,inactive
Ush1c (USH1 protein network component harmonin),2,81.2,87.3,inactive
Ush1c (USH1 protein network component harmonin),3,76.1,84.1,inactive
"Rars2 (arginyl-tRNA synthetase 2, mitochondrial)",1,105,94.3,inactive
"Rars2 (arginyl-tRNA synthetase 2, mitochondrial)",2,78.8,75.6,inactive
4930524B15Rik (RIKEN cDNA 4930524B15 gene),1,57.8,57.8,inactive
4930524B15Rik (RIKEN cDNA 4930524B15 gene),2,84.3,55.8,inactive
4930524B15Rik (RIKEN cDNA 4930524B15 gene),3,114,78,inactive
Lcn5 (lipocalin 5),1,67.8,95.8,inactive
Lcn5 (lipocalin 5),2,68.8,59.3,inactive
Lcn5 (lipocalin 5),3,107,84.8,inactive
Ranbp1 (RAN binding protein 1),1,50.9,52.9,inactive
Ranbp1 (RAN binding protein 1),2,77.5,75.8,inactive
Ranbp1 (RAN binding protein 1),3,70.1,54.8,inactive
"Aldob (aldolase B, fructose-bisphosphate)",1,101,92.9,inactive
"Aldob (aldolase B, fructose-bisphosphate)",2,93.7,93.2,inactive
"Aldob (aldolase B, fructose-bisphosphate)",3,37.9,35.3,inactive
Rps14 (ribosomal protein S14),1,103,56.1,inactive
Rps14 (ribosomal protein S14),2,63.8,26.2,inactive
Rps14 (ribosomal protein S14),3,48.9,19.8,inactive
Trpv1,1,45.6,45.5,inactive
Trpv1,2,13.1,18.3,inactive
Trpv1,3,105,144,inactive
Myo3a (myosin IIIA),1,108,111,inactive
Myo3a (myosin IIIA),2,96.5,77.9,inactive
Myo3a (myosin IIIA),3,75.7,78,inactive
Arl4c (ADP-ribosylation factor-like 4C),1,54,57.9,inactive
Arl4c (ADP-ribosylation factor-like 4C),2,77,82.4,inactive
Arl4c (ADP-ribosylation factor-like 4C),3,90.5,77.6,inactive
Il17ra (interleukin 17 receptor A),1,63,84.5,inactive
Il17ra (interleukin 17 receptor A),2,86,61.1,inactive
"Lamb3 (laminin, beta 3)",1,91,105,inactive
"Lamb3 (laminin, beta 3)",2,64,81.1,inactive
Lrrc72 (leucine rich repeat containing 72),1,67.5,86.5,inactive
Lrrc72 (leucine rich repeat containing 72),2,102,56.3,inactive
Lrrc72 (leucine rich repeat containing 72),3,83,56.5,inactive
Vegfc (vascular endothelial growth factor C),1,136,95.1,active
Vegfc (vascular endothelial growth factor C),2,128,84.8,active
Vegfc (vascular endothelial growth factor C),3,150,98.7,active
